According to publication PMC3540053:
Where a chain is given by its changes, count along the chain named. These are yes or no findings as the source states them, for the method shown. Blank lines part the entries; values can stand above or below the binder they belong to.

How the values were obtained:
Test in all cases: two-hybrid; OsCOIs as baits in pGBKT7, OsJAZs or JAZs as preys in pGADT7, co-transformed into S. cerevisiae AH109; growth on SD without Ade, His, Leu and Trp (QDO) with 100 µM coronatine, 7 days; graded strong (+++), medium (++), weak (+), undetectable (−)
[1] = target: T1, OsCOI2(N477Y) (Oryza sativa) (UniProt Q84QA7)
T1 sequence: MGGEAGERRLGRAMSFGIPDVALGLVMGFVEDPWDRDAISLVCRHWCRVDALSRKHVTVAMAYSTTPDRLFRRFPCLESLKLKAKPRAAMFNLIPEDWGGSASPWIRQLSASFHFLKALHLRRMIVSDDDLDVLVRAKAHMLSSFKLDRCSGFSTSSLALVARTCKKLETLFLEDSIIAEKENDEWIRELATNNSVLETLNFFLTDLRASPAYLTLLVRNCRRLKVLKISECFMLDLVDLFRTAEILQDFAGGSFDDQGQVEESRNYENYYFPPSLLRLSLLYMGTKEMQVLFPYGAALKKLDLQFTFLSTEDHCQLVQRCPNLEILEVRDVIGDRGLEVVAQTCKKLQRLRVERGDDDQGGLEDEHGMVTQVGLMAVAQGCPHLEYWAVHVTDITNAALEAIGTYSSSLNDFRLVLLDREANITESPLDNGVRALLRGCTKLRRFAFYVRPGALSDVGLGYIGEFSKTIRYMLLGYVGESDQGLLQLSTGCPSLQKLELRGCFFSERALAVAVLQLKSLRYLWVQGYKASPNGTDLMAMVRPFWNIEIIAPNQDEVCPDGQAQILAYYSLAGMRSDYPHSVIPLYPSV

[2] = target: T2, OsCOI2(F91Y) (Oryza sativa) (UniProt Q84QA7)
T2 sequence: T1 sequence with F91Y, Y477N

OsCOI1b (Oryza sativa) = target: T3, OsCOI1b (Oryza sativa) (UniProt Q60EH4)
T3 sequence: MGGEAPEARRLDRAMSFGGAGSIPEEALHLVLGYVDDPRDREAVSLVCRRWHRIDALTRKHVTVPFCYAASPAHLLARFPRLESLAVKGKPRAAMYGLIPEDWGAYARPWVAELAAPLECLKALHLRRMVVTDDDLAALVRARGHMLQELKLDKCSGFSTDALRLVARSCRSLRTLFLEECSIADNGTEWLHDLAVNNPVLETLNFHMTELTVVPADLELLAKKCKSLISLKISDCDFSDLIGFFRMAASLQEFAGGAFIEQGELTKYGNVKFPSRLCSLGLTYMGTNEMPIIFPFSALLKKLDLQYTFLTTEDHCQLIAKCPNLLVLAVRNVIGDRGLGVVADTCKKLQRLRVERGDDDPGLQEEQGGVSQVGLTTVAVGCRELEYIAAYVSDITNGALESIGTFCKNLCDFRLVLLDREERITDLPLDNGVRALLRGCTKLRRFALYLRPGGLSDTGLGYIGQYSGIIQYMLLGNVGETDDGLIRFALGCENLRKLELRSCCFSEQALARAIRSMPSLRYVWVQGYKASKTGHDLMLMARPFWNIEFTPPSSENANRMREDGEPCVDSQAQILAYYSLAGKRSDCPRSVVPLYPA

OsCOI1a (Oryza sativa) = target: T4, OsCOI1a (Oryza sativa) (UniProt Q6Y9P5)
T4 sequence: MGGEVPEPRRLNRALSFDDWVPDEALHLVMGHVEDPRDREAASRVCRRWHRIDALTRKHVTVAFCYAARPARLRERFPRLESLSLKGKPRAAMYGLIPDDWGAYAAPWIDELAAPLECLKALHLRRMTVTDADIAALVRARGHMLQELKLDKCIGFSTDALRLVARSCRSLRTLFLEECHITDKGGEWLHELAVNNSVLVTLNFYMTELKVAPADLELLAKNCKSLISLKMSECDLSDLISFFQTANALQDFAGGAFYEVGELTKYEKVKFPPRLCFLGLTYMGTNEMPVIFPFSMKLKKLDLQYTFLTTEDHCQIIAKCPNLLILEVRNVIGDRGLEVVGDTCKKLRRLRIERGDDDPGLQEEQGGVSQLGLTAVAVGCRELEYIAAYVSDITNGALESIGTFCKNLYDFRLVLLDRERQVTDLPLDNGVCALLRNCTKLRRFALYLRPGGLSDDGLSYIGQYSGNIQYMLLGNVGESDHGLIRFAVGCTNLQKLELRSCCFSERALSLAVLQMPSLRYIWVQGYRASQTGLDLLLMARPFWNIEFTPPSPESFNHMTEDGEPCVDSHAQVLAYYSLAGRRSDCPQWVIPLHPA

binding [1]: no binding | binding [2]: no binding
B1: OsJAZ3 (protein, UniProt Q8GSI0 1-179)
chain: MASTDPMTRRFAVACGVLSQYVKANSSQPSTAAPVAQGVSGLMAAAAAAAAAPVVQEPGCEVDGGGQQFTIFYAGKVVVIDRCTPAMAAELMRFASAAQGGGGAPEAPPALVDMPIARKASLKRFLAKRKATPASARSSYVVRAAAAEEEQPPAKKAKAAVERREDWLALGSLGHMHSR

binding (OsCOI1b (Oryza sativa)): no binding | binding [1]: no binding | binding (OsCOI1a (Oryza sativa)): no binding | binding [2]: no binding
B2: OsJAZ12 (protein, UniProt Q6Z2K1 1-157)
chain: MPPPAAVASLTLQVPGGAHDVTSLATSPRTMAVPGTTEQLTIFYSGSMVKFDNVPREKIRYACRLRRLYSSLQRSLQTQDTSMFPSSSSLHIQTKRRGYSVIRLLREMLMVCSSTRTKPMLVHSDSIGAQRTGTPPSRRRIHARGKSRSCQEMSHCW

binding [1]: no binding | binding (OsCOI1a (Oryza sativa)): no binding | binding [2]: no binding
B3: OsJAZ4 (protein, UniProt Q10QW3 1-187)
chain: MAMEGKSRRFAVACGVLSQYVRAEQKMAAAAGAAPARAVTTLSLMPGAEVVVEEEERREVGEEEAGPATAPAAPLTIFYGGRMVVFEDFPADKAAEVMRMASSGMAAAPAQREGAALADMPIMRKASLQRFFAKRKDRLAATTPYARPSPAETKASEPEEKKTPTSWLDLAASASAAARRDSLTIAL
